Reference: PubChem BioAssay AID2685 (National Center for Advancing Translational Sciences (NCATS), 2010)
Some of the results follow. Shown are side measurements of this screen, not its main read-out; they come without a call. Most of these compounds were active or inconclusive in the main read-out, so they are no random draw. Potencies come from curve fits of mixed quality, noted in brackets.

Assay: qHTS Assay for Lipid Storage Modulators in Drosophila S3 Cells;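 for cell number change: cells counted by Cell Tracker Red CMTPX staining in the red channel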
Settings: BODIPY lipid droplet fluorescence, 18-24 h; for cell number change: measured here: cell count max response, cells fed with added oleic acid
How it was run: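 Drosophila S3 cells loaded with oleic acid (400 uM, as added) and compounds at several concentrations; lipid droplets imaged by 488-nm laser-scanning cytometry, 500–530 nm intensity and object ratio to cell channel. Percent activity normalized to 20 uM Triacsin C.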

[1] = measured here: cell number channel AC50, cells fed with added oleic acid
[2] = measured here: lipid fluorescence (Fed channel) AC50, cells fed with added oleic acid

Compound | cell number change [%] | AC50 [1] | AC50 [2]
COc1cc(C)nc(OCCNS(=O)(=O)c2cc(C)ccc2C)n1 | 45.7 | 2.91 µM [rising, partial curve] | 1.64 µM [rising, partial curve]
COc1ccc(C)cc1NC(=O)CSc1nc2ccccc2nc1N1CC(C)OC(C)C1 (stereo not drawn) | 10.1 |  | 0.58 µM [rising, full curve, poor fit]
COCCN(CCOC)C(=O)CN1C(=O)NC(Cc2c[nH]c3ccccc23)C1=O (stereo not drawn) |  | 6.51 µM [rising, partial curve, poor fit] | 
COc1cc(Br)cc(/C=N/NC(=O)Cc2ccc(C(F)(F)F)cc2[N+](=O)[O-])c1O | -6.3 |  | 23.1 µM [falling, single point]
COc1cc(NC(=O)c2cccs2)c(OC)cc1NC(=O)Nc1ccc(F)cc1 | -20.7 |  | 
O=C(NCCCNC(=O)c1ccco1)c1ccc(F)cc1 | -6.25 |  | 0.291 µM [falling, partial curve]
CCCOc1ccc(CNC(=O)Cn2c(=O)oc3ccccc32)cc1 | -15.2 |  | 
NC(=O)NC(=O)COC(=O)c1ccc2noc(-c3ccccc3)c2c1 | 105 | 23.1 µM [rising, partial curve, poor fit] | 
O=C(O)CSc1ccccc1C(=O)O | -104 | 14.6 µM [falling, partial curve, poor fit] | 0.13 µM [falling, full curve, poor fit]
O=C(NCC(=O)N1CCCC1)c1ccc(Br)cc1 | 4.76 |  | 
NC(=O)CC(NC(=O)Cc1cccc2ccccc12)c1ccc(N2CCC(N3CCCC3)CC2)c([N+](=O)[O-])c1 (stereo not drawn) | -11.1 |  | 
Cn1cc(CN2CCCCC2c2ccccn2)c(-c2ccc3c(c2)OCCO3)n1 (stereo not drawn) | 24.3 |  | 
Cc1ccccc1-n1ncc2c1CC(C)(C)CC2NC(=O)c1ccncc1 (stereo not drawn) | 17 |  | 20.6 µM [rising, single point]
CCOC(=O)N1CCC(N2C(=O)c3ccccc3C2Nc2c(C)cccc2C)CC1 (stereo not drawn) | -5.28 |  | 2.31 µM [rising, single point]
COC(=O)c1ccc(CNC(=O)c2ccc(OCC(=O)N3CCOCC3)c(OC)c2)cc1 | 7.38 |  | 
CCCCC(C(=O)NC1CCCC1)N(C(=O)c1snc(C(N)=O)c1N)c1ccc(OCC)cc1 (stereo not drawn) | -14.7 |  | 
COc1cc(NC(=O)Cn2cnc(S(=O)(=O)N3CCCCC3)c2)cc(OC)c1OC | 15 |  | 29.1 µM [rising, single point]
O=C1CC(O)(C(F)F)Oc2ccc3ccccc3c21 (stereo not drawn) | 46.1 | 13 µM [rising, partial curve, poor fit] | 7.31 µM [rising, partial curve]
COc1cc(C(=O)NNC(=O)C2CCCC2)cc(OC)c1OC | 11.5 |  | 

2 entries drawn at random from the list so far:
Compound | cell number change [%] | AC50 [1] | AC50 [2]
COCCN(CCOC)C(=O)CN1C(=O)NC(Cc2c[nH]c3ccccc23)C1=O (stereo not drawn) |  | 6.51 µM [rising, partial curve, poor fit] | 
Cn1cc(CN2CCCCC2c2ccccn2)c(-c2ccc3c(c2)OCCO3)n1 (stereo not drawn) | 24.3 |  | 

(next part)

Compound | cell number change [%] | AC50 [1] | AC50 [2]
COc1cccc(CNC(=O)COC(=O)/C(C#N)=C/c2ccc(N(C)C)cc2)c1 | -19.4 | 3.66 µM [falling, partial curve, poor fit] | 
CSC1=NSC2=NC(=O)/C(=C/c3coc4ccccc4c3=O)C(=N)N12 | -38.9 | 23.1 µM [falling, single point] | 29.1 µM [falling, partial curve, poor fit]
O=C(c1ccccc1F)N(Cc1cccnc1)Cc1cc2cc3c(cc2[nH]c1=O)OCCO3 | 49.8 | 0.651 µM [rising, partial curve, poor fit] | 18.4 µM [rising, single point]
O=C(NCc1ccccn1)Nc1ccccc1C(F)(F)F | -11.9 | 0.58 µM [falling, partial curve, poor fit] | 
CCOC(=O)C1CCN(CC(=O)Nc2cc(S(=O)(=O)N3CCOCC3)ccc2C)CC1 | 67.6 | 4.11 µM [rising, single point] | 
COc1ccc(CCNC(=O)c2c(C)nn(-c3ccccc3)c2Cl)cc1OC | 4.78 |  | 6.51 µM [rising, single point]
O=C(CSc1nnc(-c2ccncc2)o1)c1cccc([N+](=O)[O-])c1 | 144 |  | 23.1 µM [rising, single point]
O=C(Nc1ncnc2sc3c(c12)CCCC3)c1ccncc1 | 58.4 | 29.1 µM [rising, single point] | 29.1 µM [rising, single point]
COc1ccccc1NC(=S)N1CCN(c2ccccc2F)CC1 | 10.9 |  | 0.116 µM [rising, full curve, poor fit]
Cc1ccccc1Cn1c(=N)n(CC(=O)c2ccc([N+](=O)[O-])cc2)c2ccccc21 | -12.2 | 0.461 µM [falling, single point] | 6.51 µM [falling, single point]
Cn1c(SCC(=O)Nc2ccc(NC(=O)c3ccccc3F)cc2)nnc1-c1ccncc1 | 19.2 |  | 
O=[N+]([O-])c1cc(S(=O)(=O)N2CCCC2)ccc1O | 101 | 2.59 µM [rising, full curve] | 
COc1cccc(OC)c1C(=O)N1CCN(c2ccccn2)CC1 | 16 | 3.66 µM [rising, single point] | 5.17 µM [rising, single point]
O=C(Nc1ccc(NC(=S)NC(=O)c2cccs2)cc1)c1ccco1 | -35.6 | 29.1 µM [falling, single point] | 29.1 µM [falling, single point]
O=c1[nH]cnc2c1nc(SCc1ccccc1)n2C1OC(CO)C(O)C1O (stereo not drawn) | 0.553 |  | 18.4 µM [falling, partial curve]
CC1CN(C(=O)c2cc(S(=O)(=O)N3CCCC3)c(Cl)cc2Cl)CC(C)O1 (stereo not drawn) | 17.7 |  | 0.146 µM [falling, full curve]
CCC(Sc1nc(N)c(NC(=O)c2ccco2)c(=O)[nH]1)C(=O)O (stereo not drawn) |  |  | 20.6 µM [rising, partial curve]
COc1ccccc1Oc1ccc2c(c1)C(=O)N(c1ccc(O)cc1)C2=O | -10.6 |  | 29.1 µM [falling, single point]
CCN(CC)S(=O)(=O)c1ccc(N2CCN(S(=O)(=O)c3ccccc3C#N)CC2)nc1 |  | 2.59 µM [rising, single point] | 
